Data published in US20170313758A1, “Polypeptides for the Treatment of Angiogenesis or Lymphangiogenesis-Related Diseases” (INSERM (Institut National de la Sante et de la Recherche …, priority 2014, published 2017).
These are yes or no findings as the source states them, for the method shown. For some assays here: Binding seen in cells or lysates may run through a third protein. Some entries that bind do so weakly or less than the wild type.

Sequences of proteins named here, by UniProt entry; tags and fusion partners are left off. A change or cut given only in a name is not applied to a line headed by its entry.
UniProt P35968: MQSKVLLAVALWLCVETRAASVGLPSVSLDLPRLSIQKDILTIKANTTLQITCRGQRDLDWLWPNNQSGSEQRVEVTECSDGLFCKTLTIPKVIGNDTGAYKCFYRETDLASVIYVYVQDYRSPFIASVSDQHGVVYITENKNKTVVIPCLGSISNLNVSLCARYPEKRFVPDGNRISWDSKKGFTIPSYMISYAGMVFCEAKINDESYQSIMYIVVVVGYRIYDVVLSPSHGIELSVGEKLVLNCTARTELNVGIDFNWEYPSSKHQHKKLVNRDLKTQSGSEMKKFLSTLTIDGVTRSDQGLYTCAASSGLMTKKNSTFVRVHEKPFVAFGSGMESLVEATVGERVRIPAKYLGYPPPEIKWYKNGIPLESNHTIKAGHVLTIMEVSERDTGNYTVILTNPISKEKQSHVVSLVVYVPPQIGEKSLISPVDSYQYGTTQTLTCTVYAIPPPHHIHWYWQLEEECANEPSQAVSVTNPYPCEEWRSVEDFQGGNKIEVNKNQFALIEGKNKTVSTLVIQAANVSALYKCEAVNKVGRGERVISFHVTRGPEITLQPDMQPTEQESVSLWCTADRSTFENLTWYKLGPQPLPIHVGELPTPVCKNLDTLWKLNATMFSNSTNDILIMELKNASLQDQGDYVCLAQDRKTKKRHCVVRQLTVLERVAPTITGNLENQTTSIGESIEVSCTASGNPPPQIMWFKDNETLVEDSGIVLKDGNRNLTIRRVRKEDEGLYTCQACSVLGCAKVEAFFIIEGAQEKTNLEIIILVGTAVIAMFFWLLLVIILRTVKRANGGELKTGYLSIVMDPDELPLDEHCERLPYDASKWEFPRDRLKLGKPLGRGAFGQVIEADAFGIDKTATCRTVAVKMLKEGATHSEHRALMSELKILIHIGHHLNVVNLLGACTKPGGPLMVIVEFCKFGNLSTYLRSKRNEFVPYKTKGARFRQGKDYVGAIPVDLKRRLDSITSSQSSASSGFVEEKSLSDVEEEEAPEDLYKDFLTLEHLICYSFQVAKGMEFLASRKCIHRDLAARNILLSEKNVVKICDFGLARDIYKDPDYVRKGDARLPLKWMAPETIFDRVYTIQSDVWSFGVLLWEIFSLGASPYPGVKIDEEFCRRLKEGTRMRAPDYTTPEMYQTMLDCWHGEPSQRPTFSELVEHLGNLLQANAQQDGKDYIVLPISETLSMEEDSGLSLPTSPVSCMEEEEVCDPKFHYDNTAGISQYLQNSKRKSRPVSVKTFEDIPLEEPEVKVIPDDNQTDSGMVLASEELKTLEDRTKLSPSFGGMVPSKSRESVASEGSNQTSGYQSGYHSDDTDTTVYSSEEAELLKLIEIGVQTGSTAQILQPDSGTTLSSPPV
UniProt P35613: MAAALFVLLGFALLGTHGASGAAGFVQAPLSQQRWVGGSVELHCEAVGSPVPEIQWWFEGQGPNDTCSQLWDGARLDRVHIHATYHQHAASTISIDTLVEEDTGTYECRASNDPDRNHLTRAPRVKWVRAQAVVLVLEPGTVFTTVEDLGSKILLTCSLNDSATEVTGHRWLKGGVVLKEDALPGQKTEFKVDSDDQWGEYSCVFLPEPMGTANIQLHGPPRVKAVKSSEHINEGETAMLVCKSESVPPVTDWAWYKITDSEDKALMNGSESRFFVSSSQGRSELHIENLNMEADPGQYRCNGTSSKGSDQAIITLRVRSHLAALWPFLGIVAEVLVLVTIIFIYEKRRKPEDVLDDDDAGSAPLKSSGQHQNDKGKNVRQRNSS

Experiments:
[1] = target: T1, VEGFR-2 (human, UniProt P35968 20-1356); assay: co-immunoprecipitation from HMEC and M10 lysates; in situ PLA confirmed proximity at the cell surface
T1 construct: Endogenous receptor of human cells (HMEC, M10, MDA-MB-231, BLM); the whole entry is named; also called KDR

[2] = target: pVEGFR-2 (human) (UniProt P35968); assay: in situ PLA, cells and human cancer tissues (FIG. 3)
[3] = target: T1, VEGFR-2; assay: co-IP and in situ PLA after EMMPRIN siRNA; HMEC, MDA-MB-231, M10 (BLM not shown)
[4] = target: pVEGFR-2 (human) (UniProt P35968); assay: in situ PLA on BLM xenograft sections
[5] = target: T1, VEGFR-2; assay: co-IP and in situ PLA, HMEC and M10 cells (FIG. 1)
[6] = target: T1, VEGFR-2; assay: in situ PLA after EMMPRIN siRNA (FIG. 2)
[7] = target: pVEGFR-2 (human) (UniProt P35968); assay: in situ PLA, HMEC and M10 cells; human breast cancer and melanoma tissues
[8] = target: pVEGFR-2 (human) (UniProt P35968); assay: in situ PLA on BLM xenograft sections (FIG. 4E)

Measured: binding

EMMPRIN/CD147 (from UniProt P35613 140-385) (receptor)
binds: [1] | [2] | [3] | [4] | [5] | [6] | [7] | [8]
